Assay results as given in PubChem BioAssay AID504467 (National Center for Advancing Translational Sciences (NCATS), 2011).
The campaign covered roughly 330,000 compounds. About 7,700 (2.3%) were called active. The inconclusive results got no clear call from the source; some entries with a clear call stand among them for comparison. Calls follow the shape of the dose curve; as a rule, active = well fitted inhibition curve with a large enough effect; inconclusive = small, poorly fitted or top-dose-only effect, or effect the other way; inactive = flat fitted curve, though single readings scatter. Potencies beside an inconclusive call are fits to weak or partial responses and may not hold up.

Assay: qHTS screen for small molecules that inhibit ELG1-dependent DNA repair in human embryonic kidney (HEK293T) cells expressing luciferase-tagged ELG1; also: nearly all actives have a fitted effect of over 55% in size
Conditions: HEK293T ELG1-luciferase reporter, luminescence, 16 h, DNA damage induced by 5-fluorouridine; series mostly up to 46.1 µM
Summary of the method: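 Luminescence from the luciferase reporter, measured 30 min after ONE-Glo reagent at room temperature, was the read-out. Beforehand, 2,000 cells per well were exposed for 16 hr at 37 °C to 5-fluorouridine together with compound or vehicle.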
Potency is read from the fitted curve at half-maximal effect.

Q: For `COc1cc(OC)c2ccc(=O)oc2c1`, which Potency is on record?
A: inconclusive: 20.6 µM [activator, single point]

Q: With `O=C(Cc1ccccc1)NCCSC1CCCCC1` as the compound, how does the Potency read?
A: inconclusive: 29.1 µM [activator, single point]

Q: With `CC1(C)Cc2c(sc3nnn(CC(=O)Nc4ccccc4)c(=O)c23)CO1` as the compound, how does the Potency read?
A: inconclusive: 25.9 µM [inhibitor, single point]

Q: Which Potency does the source give for `CCN1C(=O)c2cccc3c(S(=O)(=O)NCCCN4CCOCC4)ccc1c23` here?
A: inconclusive: 16.4 µM [activator, partial curve, poor fit]

Q: Which Potency does the source give for `Cc1cc(O)c(/C=N/Nc2ccccc2Cl)c(=O)o1` here?
A: inconclusive: 23.1 µM [activator, single point]

Q: Which Potency does the source give for `CC(C)N(C(=O)CSc1nc(Cc2ccccc2)nc2ccccc12)C(C)C` here?
A: inconclusive: 25.9 µM [inhibitor, partial curve]

Q: For `N#Cc1cc(-c2ccccc2)cnc1Sc1ccccc1`, which Potency is on record?
A: inconclusive: 1.84 µM [activator, partial curve, poor fit]

Q: For `Cc1oc2ccccc2c1CC(=O)NCCCN(C)C`, which Potency is on record?
A: inactive

Q: Which Potency does the source give for `Cc1ccc(C(=O)COC(=O)c2cccc(NC(=O)c3ccc([N+](=O)[O-])cc3[N+](=O)[O-])c2)cc1` here?
A: inconclusive: 2.59 µM [activator, partial curve]

Q: Which Potency does the source give for `CCCC(c1nnnn1CCOC)N1CCN(c2nc3ccccc3s2)CC1` (stereo not given) here?
A: inconclusive: 11.6 µM [inhibitor, partial curve, poor fit]

Q: For `CCCCN(C)CCNC(=O)CN1C(=O)CSc2ccc(S(=O)(=O)N3CCCC3)cc21`, which Potency is on record?
A: inconclusive: 11.6 µM [activator, partial curve]

Q: Which Potency does the source give for `Cc1cccc2sc(N(CCN(C)C)C(=O)c3ccc4ccccc4c3)nc12` here?
A: inactive

Q: With `Cc1nc2c(ccc3nc(NC(=O)c4ccc5c(c4)OCCO5)sc32)s1` as the compound, how does the Potency read?
A: inconclusive: 0.411 µM [activator, partial curve, poor fit]

Q: With `N#CCCN(C(=O)COC(=O)C1CCN(S(=O)(=O)c2cccs2)CC1)c1ccccc1` as the compound, how does the Potency read?
A: inactive

Q: For `CCCn1c2ccc(C)cc2c2nnc(SCCN3CCCCC3)nc21`, which Potency is on record?
A: inactive

Q: For `Cc1ccc(Cn2c(NS(=O)(=O)c3ccccc3)nc3ccccc32)cc1`, which Potency is on record?
A: inactive

Q: Which Potency does the source give for `CCN(CC)C(=N)/C(C#N)=N/Nc1ccc(C)cc1` here?
A: inconclusive: 16.4 µM [activator, partial curve]

Q: Which Potency does the source give for `CCOC(=O)CC(=O)CSc1n[nH]c(=O)[nH]c1=O` here?
A: inconclusive: 29.1 µM [activator, single point]

Q: For `C=CCn1c(C)cc(C(=O)COC(=O)c2cncc(Br)c2)c1C`, which Potency is on record?
A: inconclusive: 2.59 µM [activator, partial curve]

Q: With `O=C(O)c1[nH]c2ccc([N+](=O)[O-])cc2c1-c1ccccc1` as the compound, how does the Potency read?
A: inconclusive: 29.1 µM [activator, single point]

Q: For `CCSC1=C(C#N)C(c2ccccc2OC)CC(=O)N1` (stereo not given), which Potency is on record?
A: inactive

Q: Which Potency does the source give for `C=CCSc1nc2c(cc1C#N)CCC2` here?
A: inconclusive: 32.6 µM [activator, partial curve, poor fit]

Q: For `CC(=O)Nc1ccc2cc3ccc(NC(C)=O)cc3nc2c1`, which Potency is on record?
A: inconclusive: 23.1 µM [activator, partial curve]

Q: Which Potency does the source give for `Cc1cc(C)n(CC(=O)Nc2ccc(N3CCOCC3)c(Cl)c2)c(=O)c1C#N` here?
A: inactive

Q: Which Potency does the source give for `Cc1nc(-c2ccccc2)sc1C1(C)CC(c2ccc(C#N)cc2)=NO1` (stereo not given) here?
A: inconclusive: 10.3 µM [activator, partial curve]

Q: For `Cc1nn(-c2ccccc2)nc1-c1nnc(-c2ccc(C(F)(F)F)cc2)o1`, which Potency is on record?
A: inactive

Q: Which Potency does the source give for `COc1ccccc1N(CC(=O)NCc1ccccc1)C(=O)CCC(=O)Nc1cc(C)ccn1` here?
A: inconclusive: 29.1 µM [inhibitor, single point]

Q: Which Potency does the source give for `CCOc1ccc(NC(=O)C[n+]2ccc(N(C)C)cc2)cc1` here?
A: inactive

Q: For `O=C(CN1CCCc2ccccc21)N/N=C/c1ccccc1`, which Potency is on record?
A: inconclusive: 18.4 µM [activator, single point]

Q: For `COc1ccccc1CC(=O)OCC(=O)N1CCN(c2ccc(F)cc2)CC1`, which Potency is on record?
A: inconclusive: 10.3 µM [inhibitor, single point]

Q: Which Potency does the source give for `N#Cc1ccc(C2N=C(c3ccccc3)NO2)cc1` (stereo not given) here?
A: inconclusive: 16.4 µM [activator, partial curve]

Q: With `C[C@H](CO)N1C[C@H](C)[C@@H](CN(C)CC2CCCCC2)Oc2ccc(NC(=O)Cn3cnnn3)cc2C1=O` as the compound, how does the Potency read?
A: inactive

Q: For `Cc1cc(C)c(C)c(S(=O)(=O)N2CCN(c3ccc(O)cc3)CC2)c1C`, which Potency is on record?
A: inconclusive: 5.8 µM [inhibitor, partial curve, poor fit]

Q: With `Cc1ccc(-n2nnnc2CNC(=O)c2ccc([N+](=O)[O-])o2)cc1C` as the compound, how does the Potency read?
A: inconclusive: 10.3 µM [inhibitor, single point]

Q: Which Potency does the source give for `CC(=O)N(C1=C(O)c2ccccc2C(=O)C1=O)C1CCCCC1` here?
A: inactive

Q: With `COc1ccccc1C1CCN(C(=O)c2cccs2)CC1` as the compound, how does the Potency read?
A: inactive

Q: With `O=C(CSc1ccc(Br)cc1)N1CCOCC1` as the compound, how does the Potency read?
A: inconclusive: 18.3 µM [activator, single point]

Q: For `CCCC12CN3CCN(CC(C3)/C1=N\NC(=O)Nc1ccccc1)C2`, which Potency is on record?
A: inactive

Q: With `COc1ccc([C@H]2CC(=O)C=C(c3cc(Cl)ccc3C)C2)cc1` as the compound, how does the Potency read?
A: inconclusive: 29.1 µM [inhibitor, single point]

Q: With `FC(F)Oc1ccccc1/C=N/Nc1nc2ccccc2o1` as the compound, how does the Potency read?
A: inconclusive: 5.17 µM [activator, partial curve]

Q: With `COc1ccc(C(=O)Cn2c(C)nc([N+](=O)[O-])c2Br)cc1` as the compound, how does the Potency read?
A: inconclusive: 29.1 µM [activator, single point]

Q: With `CN(C(=O)c1cccc(NC(=O)Cc2cccc([N+](=O)[O-])c2)c1)C1CCCC1` as the compound, how does the Potency read?
A: inconclusive: 13 µM [inhibitor, partial curve]

Q: With `CCOc1ccc(NC(=O)c2ccccc2NC(=O)CN(C)CC(=O)Nc2ccc(C)cc2)cc1` as the compound, how does the Potency read?
A: inconclusive: 25.9 µM [inhibitor, single point]

Q: With `CCN(CC)S(=O)(=O)c1ccc(C(=O)Nc2nnc(-c3ccco3)o2)cc1` as the compound, how does the Potency read?
A: active: 20.6 µM

Q: For `COc1ccc(OC)c(NC(=O)C2CCN(Cc3cnn(-c4ccccc4)c3-n3cccc3)CC2)c1`, which Potency is on record?
A: active: 23.1 µM
